{"source": "patent US7182943B2", "about": "“Method and system for modulation of microbial cell characteristics” (Université Laval, priority 2002, dated 2007)", "tested_on": "L. diacetylactis", "experiment": "Antibiotic tolerance by the disc assay method, L. diacetylactis cells", "format": "cell-based, Lactococcus lactis ssp lactis biovar diacetylactis", "conditions": "after approximately 6 days of continuous culture, tolerance increased with time", "procedure": "FIG. 1 : Tolerance to kanamycin of L. diacetylactis and B. longum cells produced during continuous immobilized cell fermentation in reactors R1 and R2 for different culture times. J and R indicate the culture day and reactor, respectively. The antibiotic sensitivity was tested by the disc assay method.\nBifidobacterium longum ATCC 15707 and Lactococcus lactis ssp lactis biovar diacetylactis were immobilized separately in κ-carrageenan/locust bean gum gel beads with a 2% (v/v) inoculum, as described previously (Lamboley et al. 1997). Beads with diameters in the range 1–2 mm were selected by wet sieving and used for fermentation experiments. This mixed gel is a good matrix entrapment for temperature-sensitive cells, with good mechanical properties for long-term stability during continuous culture with immobilized cells (Lamboley et al., 1997; 1999; 2001). The κ-carrageenan/locust bean gum gel is stabilized by potassium and other cations present in the culture broth. […] Other gel compositions can also be used for the immobilization matrix, such as polysaccharides and proteins, with other chemical products.\nReactor R1 was inoculated with 15% (v/v) of each of the two types of gel beads containing a pure culture of the two strains which have been pre-colonized during a 16 h pH-controlled batch culture. […]", "note": "For at least one compound, name, drawing or mass did not settle the structure.", "data": [{"smiles": "NC[C@H]1O[C@H](O[C@H]2[C@H](O)[C@@H](O[C@H]3O[C@H](CO)[C@@H](O)[C@H](N)[C@H]3O)[C@H](N)C[C@@H]2N)[C@H](O)[C@@H](O)[C@@H]1O", "note": "[kanamycin]", "values": [{"measurement": "Tolerance of cells produced with immobilized cell technology compared to the control", "value": "more tolerant"}]}]}
